PubChem BioAssay AID1259254 – NCATS | 2017
The whole screen tested about 59,000 reagents; shown is a random part of them. Over the whole deposit, about 1,550 (2.6%) got an active call. 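G2 share is only a proxy for re-replication; each gene was hit by three separate siRNAs, and active genes were retested.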 The numbers tell different reagents against one gene apart. Further read-outs or replicates are left out here. Reagent sequences are not shown. Not given: the amount of reagent.

Purpose: 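Genome-wide screen for genes that prevent DNA re-replication in cancer cells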 (primary screen)
System: human HCT116 colorectal cancer cells
Reagent: single siRNA against human genes
Time to read-out: 3 days
Measured: 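Imaged Hoechst DNA stain sorts each cell into a cycle phase by DNA amount; per plate, G2 fraction set to 0% for non-targeting and 100% for GMNN siRNA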
Direction: G2 robust z-score: higher = more G2 cells, more excess DNA replication
Call rule: 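Active siRNAs have a G2 robust z of 5 or more median absolute deviations over the median, which in these data means about 38% or higher of GMNN control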

For SH3BGRL3 (GeneID 83442) #1, how do the results read?
G2 robust z-score: -0.77; call: inactive

What did the screen give for SH3BGRL3 (GeneID 83442) #2?
G2 robust z-score: -0.439; call: inactive

With SH3BGRL3 (GeneID 83442) #3, what does the deposit list?
G2 robust z-score: -0.175; call: inactive

What is on record for SLIT2 (GeneID 9353) #1?
G2 robust z-score: -0.365; call: inactive

With SLIT2 (GeneID 9353) #2, what does the deposit list?
G2 robust z-score: -0.382; call: inactive

What did the screen give for SLIT2 (GeneID 9353) #3?
G2 robust z-score: -1.17; call: inactive

Laid out differently: 3 of the entries above
{"target": "SH3BGRL3 (GeneID 83442)", "reagent no.": 2, "G2 robust z-score": -0.439, "call": "inactive"}
{"target": "SH3BGRL3 (GeneID 83442)", "reagent no.": 3, "G2 robust z-score": -0.175, "call": "inactive"}
{"target": "SLIT2 (GeneID 9353)", "reagent no.": 1, "G2 robust z-score": -0.365, "call": "inactive"}

The list goes on:
Which result is listed for STARD6 (GeneID 147323) #1?
G2 robust z-score: -0.829; call: inactive

What is on record for STARD6 (GeneID 147323) #2?
G2 robust z-score: -0.162; call: inactive

How did the screen score STARD6 (GeneID 147323) #3?
G2 robust z-score: -0.584; call: inactive

How did the screen score AGER (GeneID 177) #1?
G2 robust z-score: -0.32; call: inactive

For AGER (GeneID 177) #2, how do the results read?
G2 robust z-score: 1.85; call: inactive

What is on record for AGER (GeneID 177) #3?
G2 robust z-score: 1.91; call: inactive

For LIN28A (GeneID 79727) #1, what does the deposit list?
G2 robust z-score: 0.835; call: inactive

How did the screen score LIN28A (GeneID 79727) #2?
G2 robust z-score: -1.24; call: inactive

For LIN28A (GeneID 79727) #3, how do the results read?
G2 robust z-score: -0.22; call: inactive

With ZNF716 (GeneID 441234) #1, what was measured?
G2 robust z-score: 1.46; call: inactive

With ZNF716 (GeneID 441234) #2, how do the results read?
G2 robust z-score: -0.462; call: inactive

What is on record for ZNF716 (GeneID 441234) #3?
G2 robust z-score: 1.03; call: inactive
